# Results from the supplement of paper PMC10849652.
# Protein sequences, listed by entry. Tags and fused reporters are not part of them. Lines headed by an entry give the natural chain unless they say otherwise; changes in a name come on top.
# UniProt Q66K74: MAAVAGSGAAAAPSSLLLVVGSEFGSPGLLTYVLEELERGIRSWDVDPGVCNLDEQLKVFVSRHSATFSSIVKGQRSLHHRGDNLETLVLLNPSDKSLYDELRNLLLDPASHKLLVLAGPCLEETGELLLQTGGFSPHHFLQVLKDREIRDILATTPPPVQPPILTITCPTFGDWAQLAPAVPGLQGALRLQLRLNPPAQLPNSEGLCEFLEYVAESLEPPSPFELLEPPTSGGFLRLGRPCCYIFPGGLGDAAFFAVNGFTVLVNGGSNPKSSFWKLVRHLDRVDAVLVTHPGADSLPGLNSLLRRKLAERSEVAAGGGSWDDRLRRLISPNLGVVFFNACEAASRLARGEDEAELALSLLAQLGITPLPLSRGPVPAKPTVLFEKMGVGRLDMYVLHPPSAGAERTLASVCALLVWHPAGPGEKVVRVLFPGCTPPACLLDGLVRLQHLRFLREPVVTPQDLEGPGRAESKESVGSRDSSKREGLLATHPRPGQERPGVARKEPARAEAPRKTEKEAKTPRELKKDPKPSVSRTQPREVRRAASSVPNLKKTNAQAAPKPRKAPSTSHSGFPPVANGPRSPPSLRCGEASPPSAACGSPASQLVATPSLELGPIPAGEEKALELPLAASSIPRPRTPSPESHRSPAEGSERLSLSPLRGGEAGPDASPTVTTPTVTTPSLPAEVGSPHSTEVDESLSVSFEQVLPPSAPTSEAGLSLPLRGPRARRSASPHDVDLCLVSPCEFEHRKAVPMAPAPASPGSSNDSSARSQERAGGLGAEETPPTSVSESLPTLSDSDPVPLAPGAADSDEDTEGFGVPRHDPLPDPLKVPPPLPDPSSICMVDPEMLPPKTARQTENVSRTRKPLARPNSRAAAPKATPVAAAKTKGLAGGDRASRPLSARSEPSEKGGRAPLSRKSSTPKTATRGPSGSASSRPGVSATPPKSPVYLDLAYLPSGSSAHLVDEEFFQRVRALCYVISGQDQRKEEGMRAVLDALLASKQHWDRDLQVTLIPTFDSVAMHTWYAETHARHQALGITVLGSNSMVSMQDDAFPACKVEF
# UniProt Q9BQ69: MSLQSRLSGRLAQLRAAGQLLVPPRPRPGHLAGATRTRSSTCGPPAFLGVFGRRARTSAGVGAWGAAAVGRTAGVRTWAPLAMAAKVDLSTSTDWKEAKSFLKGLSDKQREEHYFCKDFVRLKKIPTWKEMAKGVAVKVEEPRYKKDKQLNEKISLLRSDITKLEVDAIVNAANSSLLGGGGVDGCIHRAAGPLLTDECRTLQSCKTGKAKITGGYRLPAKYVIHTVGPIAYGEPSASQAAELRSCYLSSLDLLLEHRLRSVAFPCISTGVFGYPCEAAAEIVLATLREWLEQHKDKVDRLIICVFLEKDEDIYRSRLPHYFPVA
# UniProt Q8WWC4: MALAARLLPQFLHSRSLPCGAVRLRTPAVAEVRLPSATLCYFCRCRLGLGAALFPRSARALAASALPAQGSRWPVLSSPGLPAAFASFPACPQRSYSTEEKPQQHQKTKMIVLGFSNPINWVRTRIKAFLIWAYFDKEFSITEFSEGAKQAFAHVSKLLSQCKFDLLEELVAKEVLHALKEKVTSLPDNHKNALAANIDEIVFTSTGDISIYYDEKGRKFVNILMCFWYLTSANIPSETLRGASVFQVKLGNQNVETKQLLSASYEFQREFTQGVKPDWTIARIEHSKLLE
# UniProt Q3KQU3: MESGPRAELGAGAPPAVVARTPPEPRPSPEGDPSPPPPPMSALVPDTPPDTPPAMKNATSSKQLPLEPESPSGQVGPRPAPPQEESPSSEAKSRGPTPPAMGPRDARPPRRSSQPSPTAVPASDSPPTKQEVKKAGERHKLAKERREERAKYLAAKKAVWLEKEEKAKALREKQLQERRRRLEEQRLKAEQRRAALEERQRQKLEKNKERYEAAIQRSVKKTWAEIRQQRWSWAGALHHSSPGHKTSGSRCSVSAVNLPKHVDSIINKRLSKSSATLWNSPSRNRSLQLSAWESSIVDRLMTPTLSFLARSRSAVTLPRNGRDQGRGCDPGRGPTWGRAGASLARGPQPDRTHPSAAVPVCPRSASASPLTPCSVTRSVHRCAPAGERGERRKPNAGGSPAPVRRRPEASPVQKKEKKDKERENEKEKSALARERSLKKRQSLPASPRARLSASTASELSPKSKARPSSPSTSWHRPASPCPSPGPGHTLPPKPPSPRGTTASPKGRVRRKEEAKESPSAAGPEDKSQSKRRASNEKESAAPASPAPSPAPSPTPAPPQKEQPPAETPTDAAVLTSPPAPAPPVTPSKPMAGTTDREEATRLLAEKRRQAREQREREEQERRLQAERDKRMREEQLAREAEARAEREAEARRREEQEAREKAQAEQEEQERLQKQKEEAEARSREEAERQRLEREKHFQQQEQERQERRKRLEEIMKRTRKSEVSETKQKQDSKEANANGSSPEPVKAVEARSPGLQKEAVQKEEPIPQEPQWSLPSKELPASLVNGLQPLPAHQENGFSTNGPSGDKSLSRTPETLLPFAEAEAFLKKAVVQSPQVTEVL
# UniProt Q96S90: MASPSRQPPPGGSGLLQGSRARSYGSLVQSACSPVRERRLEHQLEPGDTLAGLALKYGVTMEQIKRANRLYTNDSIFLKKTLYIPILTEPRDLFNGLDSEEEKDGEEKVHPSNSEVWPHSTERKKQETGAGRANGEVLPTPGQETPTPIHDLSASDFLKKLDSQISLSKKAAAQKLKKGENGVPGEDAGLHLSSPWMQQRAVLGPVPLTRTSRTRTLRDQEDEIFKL
# UniProt P45985: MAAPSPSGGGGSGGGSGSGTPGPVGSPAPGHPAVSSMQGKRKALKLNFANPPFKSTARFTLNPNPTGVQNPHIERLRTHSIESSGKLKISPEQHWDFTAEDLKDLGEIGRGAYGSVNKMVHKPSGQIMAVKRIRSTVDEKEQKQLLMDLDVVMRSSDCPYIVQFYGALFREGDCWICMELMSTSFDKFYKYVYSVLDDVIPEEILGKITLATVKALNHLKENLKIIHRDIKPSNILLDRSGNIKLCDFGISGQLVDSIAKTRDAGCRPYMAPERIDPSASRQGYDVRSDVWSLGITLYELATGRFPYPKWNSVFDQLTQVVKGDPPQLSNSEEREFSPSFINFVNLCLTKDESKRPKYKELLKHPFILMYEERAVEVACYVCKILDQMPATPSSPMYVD
# UniProt Q9NTJ4: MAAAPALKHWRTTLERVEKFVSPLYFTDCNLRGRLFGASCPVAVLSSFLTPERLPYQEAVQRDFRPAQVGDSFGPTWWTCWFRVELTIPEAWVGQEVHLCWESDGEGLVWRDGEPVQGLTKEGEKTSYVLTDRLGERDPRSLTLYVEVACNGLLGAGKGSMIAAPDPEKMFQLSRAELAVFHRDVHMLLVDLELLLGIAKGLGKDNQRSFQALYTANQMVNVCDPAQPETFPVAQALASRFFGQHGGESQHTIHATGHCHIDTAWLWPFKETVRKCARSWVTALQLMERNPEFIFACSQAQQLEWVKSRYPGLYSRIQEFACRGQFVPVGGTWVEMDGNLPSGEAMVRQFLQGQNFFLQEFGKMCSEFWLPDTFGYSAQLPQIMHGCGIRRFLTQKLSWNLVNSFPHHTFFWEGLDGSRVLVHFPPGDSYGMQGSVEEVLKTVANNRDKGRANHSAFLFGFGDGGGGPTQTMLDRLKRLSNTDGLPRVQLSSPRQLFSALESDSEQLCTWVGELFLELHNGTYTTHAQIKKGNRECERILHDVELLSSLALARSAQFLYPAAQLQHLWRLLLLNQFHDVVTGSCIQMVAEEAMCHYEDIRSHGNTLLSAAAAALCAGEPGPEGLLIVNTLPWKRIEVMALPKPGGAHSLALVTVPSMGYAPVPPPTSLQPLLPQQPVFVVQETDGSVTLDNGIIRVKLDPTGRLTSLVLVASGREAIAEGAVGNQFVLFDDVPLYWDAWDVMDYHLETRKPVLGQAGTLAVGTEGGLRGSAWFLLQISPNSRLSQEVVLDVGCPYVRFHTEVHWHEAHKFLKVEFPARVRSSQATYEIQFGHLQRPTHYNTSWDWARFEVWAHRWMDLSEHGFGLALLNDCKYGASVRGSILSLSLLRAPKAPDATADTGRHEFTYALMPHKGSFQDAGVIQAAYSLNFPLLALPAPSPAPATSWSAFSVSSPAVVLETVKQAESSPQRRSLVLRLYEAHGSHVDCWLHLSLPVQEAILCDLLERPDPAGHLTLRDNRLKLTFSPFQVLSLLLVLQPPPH
# UniProt P49641: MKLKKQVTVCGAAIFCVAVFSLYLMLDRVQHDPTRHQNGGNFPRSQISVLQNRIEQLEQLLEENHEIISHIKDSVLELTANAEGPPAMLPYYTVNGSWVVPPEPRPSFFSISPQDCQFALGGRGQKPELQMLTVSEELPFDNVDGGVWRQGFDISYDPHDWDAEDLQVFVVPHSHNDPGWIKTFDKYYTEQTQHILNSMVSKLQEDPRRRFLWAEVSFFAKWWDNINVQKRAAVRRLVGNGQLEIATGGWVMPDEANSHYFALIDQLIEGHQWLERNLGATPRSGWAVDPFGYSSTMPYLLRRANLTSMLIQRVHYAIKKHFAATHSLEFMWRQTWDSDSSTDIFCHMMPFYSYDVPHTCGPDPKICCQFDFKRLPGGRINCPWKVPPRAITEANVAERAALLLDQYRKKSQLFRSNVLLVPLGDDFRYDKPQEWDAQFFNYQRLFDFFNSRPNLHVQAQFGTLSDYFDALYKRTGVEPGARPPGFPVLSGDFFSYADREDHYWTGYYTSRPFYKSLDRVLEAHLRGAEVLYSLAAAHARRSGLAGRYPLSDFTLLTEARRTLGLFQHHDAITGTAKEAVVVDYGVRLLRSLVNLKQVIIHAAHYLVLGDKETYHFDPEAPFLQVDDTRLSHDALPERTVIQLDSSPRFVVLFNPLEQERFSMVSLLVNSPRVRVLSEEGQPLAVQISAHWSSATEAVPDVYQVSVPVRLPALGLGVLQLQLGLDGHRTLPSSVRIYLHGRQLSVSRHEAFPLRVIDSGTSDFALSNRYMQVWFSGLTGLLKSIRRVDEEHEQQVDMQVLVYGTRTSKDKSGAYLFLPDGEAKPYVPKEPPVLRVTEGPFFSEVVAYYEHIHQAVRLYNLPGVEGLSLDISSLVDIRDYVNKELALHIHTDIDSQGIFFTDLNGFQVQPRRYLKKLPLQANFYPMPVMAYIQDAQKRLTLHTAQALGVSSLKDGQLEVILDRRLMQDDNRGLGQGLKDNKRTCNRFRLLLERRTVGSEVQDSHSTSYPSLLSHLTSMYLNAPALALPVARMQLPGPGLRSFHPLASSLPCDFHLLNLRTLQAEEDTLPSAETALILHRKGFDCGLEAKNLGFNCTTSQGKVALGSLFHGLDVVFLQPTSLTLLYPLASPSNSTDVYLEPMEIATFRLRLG
# UniProt P29966: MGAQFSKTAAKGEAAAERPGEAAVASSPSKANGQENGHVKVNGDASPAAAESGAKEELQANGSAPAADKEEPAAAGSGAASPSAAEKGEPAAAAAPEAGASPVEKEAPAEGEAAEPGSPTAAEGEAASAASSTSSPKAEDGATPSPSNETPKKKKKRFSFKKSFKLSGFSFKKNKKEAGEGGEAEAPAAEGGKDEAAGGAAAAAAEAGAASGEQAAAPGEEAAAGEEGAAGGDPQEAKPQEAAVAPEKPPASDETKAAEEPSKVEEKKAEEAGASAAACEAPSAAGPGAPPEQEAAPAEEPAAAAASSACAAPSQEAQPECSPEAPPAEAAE
# UniProt P28482, whole entry, looked up: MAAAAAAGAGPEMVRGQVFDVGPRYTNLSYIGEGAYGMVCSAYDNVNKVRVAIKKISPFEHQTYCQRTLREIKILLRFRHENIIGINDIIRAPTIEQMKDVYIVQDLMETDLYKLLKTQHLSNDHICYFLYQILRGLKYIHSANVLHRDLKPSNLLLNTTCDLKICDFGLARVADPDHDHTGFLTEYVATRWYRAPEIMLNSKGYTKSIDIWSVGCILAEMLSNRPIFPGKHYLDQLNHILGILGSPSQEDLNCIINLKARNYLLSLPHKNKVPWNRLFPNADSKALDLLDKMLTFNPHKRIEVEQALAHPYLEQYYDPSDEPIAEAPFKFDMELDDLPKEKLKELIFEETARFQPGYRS
# This is one part of the list.
# Compound: CC1=C(C=C(C=C1)NC(=O)C2=CC(=CC=C2)C(C)(C)C#N)NC3=CC4=C(C=C3)N=CN(C4=O)C
# Test: log2 fold change, soluble protein after heating vs DMSO (PISA); higher = thermal stabilisation; K562 lysate, 10 uM; active = over 0.2 and 3.5 SD of the protein, either way, in both replicates (recomputed)
# Summary of the method: (§1)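 Soluble protein was defined as the supernatant remaining after 21,000xg for 90 min, following pooling of heated aliquots and adjustment to 0.5% NP-40 at 4°C. Before that, crude K562 extract at 1 mg/mL protein in PBS pH 7.4 with 1 mM MgCl2 was treated with 10 μM compound for 30 min and heated for 3 min across 48°C-58°C. Quantification used TMTpro 16plex LC-MS/MS with channel sums equalised, and values are log-two fold changes in thermal stability relative to solvent controls from duplicates.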
row,Target,log2 fold change
1,MAP1S (UniProt Q66K74),inactive: 0
2,MACROD1 (UniProt Q9BQ69),inactive: -0.101
3,MAPK14 (UniProt Q16539),active: 0.88
4,MAIP1 (UniProt Q8WWC4),inactive: 0.023
5,MAP3K20 isoform 2 (UniProt Q9NYL2),inactive: 0.022
6,LYAR (UniProt Q9NX58),inactive: 0.016
7,MARS (UniProt P56192),inactive: 0
8,MAP7D1 (UniProt Q3KQU3),inactive: 0.017
9,MAP2K2 (UniProt P36507),inactive: -0.017
10,LTN1 isoform 3 (UniProt O94822),inactive: -0.018
11,MAT2A (UniProt P31153),inactive: 0.008
12,LYSMD1 (UniProt Q96S90),inactive: 0.093
13,MAPRE2 (UniProt Q15555),inactive: -0.002
14,MAP3K7 (UniProt O43318),inactive: 0.036
15,LYN (UniProt P07948),inactive: 0.479
16,MAP11 (UniProt Q8WVR3),inactive: 0.014

row,Target,log2 fold change
1,MAP2K4 isoform 2 (UniProt P45985),inactive: -0.055
2,MAN2C1 isoform 4 (UniProt Q9NTJ4),inactive: 0.003
3,MAN2A2 (UniProt P49641),inactive: -0.005
4,LZTFL1 (UniProt Q9NQ48),inactive: -0.021
5,MAPK8 isoform 3 (UniProt P45983),inactive: 0.013
6,MACF1 isoform 3 (UniProt Q9UPN3),inactive: 0.005
7,MAN2A1 (UniProt Q16706),inactive: -0.008
8,MAN2B1 (UniProt O00754),inactive: -0.132
9,MAP2K1 (UniProt Q02750),inactive: 0.007
10,MAP4 isoform 5 (UniProt P27816),inactive: 0.012
11,MAD2L2 (UniProt Q9UI95),inactive: 0.053
12,MAP3K20 (UniProt Q9NYL2),inactive: -0.211
13,MARCKS (UniProt P29966),inactive: -0.018
14,MAP4 (UniProt E7EVA0),inactive: 0.131
15,MAF1 (UniProt Q9H063),inactive: 0.049
16,MAPK1 (UniProt P28482),inactive: -0.039

# Compound: CC1=C(C=C(C=C1)NC(=O)C2=CC(=CC=C2)N(C)C)NC(=O)C3=CC=C(C=C3)O
# Test: as above
# Summary of the method: as §1
row,Target,log2 fold change
1,MAP1S (UniProt Q66K74),inactive: 0.025
2,MACROD1 (UniProt Q9BQ69),inactive: 0.064
3,MAPK14 (UniProt Q16539),inactive: 0.455
4,MAIP1 (UniProt Q8WWC4),inactive: -0.011
5,MAP3K20 isoform 2 (UniProt Q9NYL2),inactive: -0.129
6,LYAR (UniProt Q9NX58),inactive: 0.015
7,MARS (UniProt P56192),inactive: 0.045
8,MAP7D1 (UniProt Q3KQU3),inactive: 0.012
9,MAP2K2 (UniProt P36507),inactive: 0.013
10,LTN1 isoform 3 (UniProt O94822),inactive: 0.075
11,MAT2A (UniProt P31153),inactive: 0.012
12,LYSMD1 (UniProt Q96S90),inactive: -0.028
13,MAPRE2 (UniProt Q15555),inactive: 0.028
14,MAP3K7 (UniProt O43318),inactive: 0.009
15,LYN (UniProt P07948),inactive: 0.007
16,MAP11 (UniProt Q8WVR3),inactive: -0.031

row,Target,log2 fold change
1,MAP2K4 isoform 2 (UniProt P45985),inactive: 0.033
2,MAN2C1 isoform 4 (UniProt Q9NTJ4),inactive: 0.001
3,MAN2A2 (UniProt P49641),inactive: -0.011
4,LZTFL1 (UniProt Q9NQ48),inactive: 0
5,MAPK8 isoform 3 (UniProt P45983),inactive: 0.047
6,MACF1 isoform 3 (UniProt Q9UPN3),inactive: 0.015
7,MAN2A1 (UniProt Q16706),inactive: 0.044
8,MAN2B1 (UniProt O00754),inactive: -0.017
9,MAP2K1 (UniProt Q02750),inactive: -0.012
10,MAP4 isoform 5 (UniProt P27816),inactive: 0.082
11,MAD2L2 (UniProt Q9UI95),inactive: -0.106
12,MAP3K20 (UniProt Q9NYL2),inactive: -0.031
13,MARCKS (UniProt P29966),inactive: -0.004
14,MAP4 (UniProt E7EVA0),inactive: 0.005
15,MAF1 (UniProt Q9H063),inactive: 0.038
16,MAPK1 (UniProt P28482),inactive: -0.03

# Compound: CC1=CC=C(C=C1)SC2=C3C=C(SC3=CN=C2)C(=O)N
# Test: as above
# Summary of the method: as §1
row,Target,log2 fold change
1,MAP1S (UniProt Q66K74),inactive: 0.006
2,MACROD1 (UniProt Q9BQ69),inactive: 0.065
3,MAPK14 (UniProt Q16539),inactive: -0.007
4,MAIP1 (UniProt Q8WWC4),inactive: -0.017
5,MAP3K20 isoform 2 (UniProt Q9NYL2),inactive: 0.065
6,LYAR (UniProt Q9NX58),inactive: 0.038
7,MARS (UniProt P56192),inactive: 0.012
8,MAP7D1 (UniProt Q3KQU3),inactive: -0.009
9,MAP2K2 (UniProt P36507),inactive: -0.014
10,LTN1 isoform 3 (UniProt O94822),inactive: 0.019
11,MAT2A (UniProt P31153),inactive: 0.001
12,LYSMD1 (UniProt Q96S90),inactive: -0.014
13,MAPRE2 (UniProt Q15555),inactive: -0.008
14,MAP3K7 (UniProt O43318),inactive: -0.019
15,LYN (UniProt P07948),inactive: -0.126
16,MAP11 (UniProt Q8WVR3),inactive: 0.078

row,Target,log2 fold change
1,MAP2K4 isoform 2 (UniProt P45985),inactive: -0.045
2,MAN2C1 isoform 4 (UniProt Q9NTJ4),inactive: -0.011
3,MAN2A2 (UniProt P49641),inactive: -0.017
4,LZTFL1 (UniProt Q9NQ48),inactive: -0.007
5,MAPK8 isoform 3 (UniProt P45983),inactive: -0.012
6,MACF1 isoform 3 (UniProt Q9UPN3),inactive: 0.003
7,MAN2A1 (UniProt Q16706),inactive: 0.019
8,MAN2B1 (UniProt O00754),inactive: 0.018
9,MAP2K1 (UniProt Q02750),inactive: -0.004
10,MAP4 isoform 5 (UniProt P27816),inactive: 0.047
11,MAD2L2 (UniProt Q9UI95),inactive: -0.132
12,MAP3K20 (UniProt Q9NYL2),inactive: -0.005
13,MARCKS (UniProt P29966),inactive: 0.073
14,MAP4 (UniProt E7EVA0),inactive: -0.027
15,MAF1 (UniProt Q9H063),inactive: -0.002
16,MAPK1 (UniProt P28482),inactive: 0.003
